Test results as given in the supplement of paper PMC4604168 (melanoma cell lines).
The list shows a part of the results. Many values rest on one well or one pass, so single values are uncertain.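 Imaging used 1,536-well plates; nuclei positive for cleaved PARP by antibody were divided by total DNA-stained nuclei to yield the apoptosis fraction. Doses for screening kept most cells viable, and cell lines differ markedly in resting and induced cleaved-PARP levels.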

Tests used:
Experiment in all cases: cleaved PARP positive nuclei fraction relative to DMSO control; melanoma cells; higher = more apoptosis
Details in all cases: library dose: low library concentration; 72 h
501Mel = test system: 501Mel
A101D = test system: A101D
A2058 = test system: A2058
A375 = test system: A375
C32 = test system: C32
CBRC008 = test system: CBRC008 (line from a melanoma biopsy)
CBRC014 = test system: CBRC014 (line from a melanoma biopsy)
CBRC016 = test system: CBRC016 (line from a melanoma biopsy)
CBRC017 = test system: CBRC017 (line from a melanoma biopsy)
CBRC034 = test system: CBRC034 (line from a melanoma biopsy)
COLO792 = test system: COLO792
COLO800 = test system: COLO800
COLO829 = test system: COLO829
G361 = test system: G361
IPC-298 = test system: IPC-298
IST-MEL1 = test system: IST-MEL1
LB2518-MEL = test system: LB2518-MEL
LOXIMVI = test system: LOXIMVI
MEL-HO = test system: MEL-HO
CBRC013 = test system: CBRC013 (line from a melanoma biopsy)

Row | Compound | cleaved PARP positive nuclei fraction (501Mel) [%] | cleaved PARP positive nuclei fraction (A101D) [%] | cleaved PARP positive nuclei fraction (A2058) [%] | cleaved PARP positive nuclei fraction (A375) [%] | cleaved PARP positive nuclei fraction (C32) [%] | cleaved PARP positive nuclei fraction (CBRC008) [%] | cleaved PARP positive nuclei fraction (CBRC014) [%] | cleaved PARP positive nuclei fraction (CBRC016) [%] | cleaved PARP positive nuclei fraction (CBRC017) [%] | cleaved PARP positive nuclei fraction (CBRC034) [%] | cleaved PARP positive nuclei fraction (COLO792) [%] | cleaved PARP positive nuclei fraction (COLO800) [%] | cleaved PARP positive nuclei fraction (COLO829) [%] | cleaved PARP positive nuclei fraction (G361) [%] | cleaved PARP positive nuclei fraction (IPC-298) [%] | cleaved PARP positive nuclei fraction (IST-MEL1) [%] | cleaved PARP positive nuclei fraction (LB2518-MEL) [%] | cleaved PARP positive nuclei fraction (LOXIMVI) [%] | cleaved PARP positive nuclei fraction (MEL-HO) [%] | cleaved PARP positive nuclei fraction (CBRC013) [%]
1 | O=C(Nc1cc(C(F)(F)F)cc(C(F)(F)F)c1)c1cc(Cl)ccc1O + COc1ccc(Cl)c(Nc2nc3ccccc3nc2NS(=O)(=O)c2cccc(NC(=O)C(C)(C)N)c2)c1 [XL147] (first compound 0.016 µM, partner dose 0.8 µM) | 56.4 | 175 | 108 | 129 | 35.6 | 292 | 106 | 265 | 117 | 74.2 | 84.7 | 44.6 | 130 | 90.2 | 132 | 171 | 111 | 124 | 39.1 | 
2 | Cc1cn(-c2cc(NC(=O)c3ccc(C)c(Nc4nccc(-c5cccnc5)n4)c3)cc(C(F)(F)F)c2)cn1 [nilotinib] + Nc1nc(F)nc2c1ncn2[C@@H]1O[C@H](CO)[C@@H](O)[C@@H]1O [fludarabine] (first compound 0.2 µM, partner dose 0.2 µM) | 11400 | 98.9 | 130 | 5890 | 320 | 61.7 | 93.5 | 238 | 131 | 39.1 | 65.3 | 75 | 140 | 116 | 47.3 | 152 | 138 | 90 | 272 | 
3 | COc1cc([C@@H]2c3cc4c(cc3[C@@H](O[C@@H]3O[C@@H]5CO[C@@H](C)O[C@H]5[C@H](O)[C@H]3O)[C@H]3COC(=O)[C@H]23)OCO4)cc(OC)c1O [etoposide] + CC(C)C[C@H](NC(=O)[C@H](Cc1ccccc1)NC(=O)c1cnccn1)B(O)O [Bortezomib] (first compound 0.02 µM, partner dose 0.001 µM) | 954 | 442 | 68 | 175 | 96 | 297 | 134 | 248 | 258 | 97.8 | 112 | 33.5 | 71.2 | 2270 | 161 | 127 | 685 | 74.8 | 122 | 
4 | COc1cc([C@@H]2c3cc4c(cc3[C@@H](O[C@@H]3O[C@@H]5CO[C@@H](C)O[C@H]5[C@H](O)[C@H]3O)[C@H]3COC(=O)[C@H]23)OCO4)cc(OC)c1O [etoposide] + Cc1cc(Nc2cc(N3CCN(C)CC3)nc(/C=C/c3ccccc3)n2)n[nH]1 [ENMD2076] (first compound 0.02 µM, partner dose 0.04 µM) | 69.3 | 40 | 90.4 | 173 | 90.4 | 187 | 78.5 | 57 | 68.9 | 21.6 | 103 | 84 | 68.3 | 175 | 85 | 194 | 56 | 80.6 | 103 | 
5 | Cc1cn(-c2cc(NC(=O)c3ccc(C)c(Nc4nccc(-c5cccnc5)n4)c3)cc(C(F)(F)F)c2)cn1 [nilotinib] + CNC(=O)c1cc(Oc2ccc(NC(=O)Nc3ccc(Cl)c(C(F)(F)F)c3)cc2)ccn1 [sorafenib] (first compound 0.2 µM, partner dose 0.4 µM) | 87 | 90.5 | 101 | 45.4 | 86.3 | 53.4 | 88.4 | 158 | 86.4 | 53.5 | 81.1 | 46.1 | 123 | 98.4 | 84.3 | 60.2 | 105 | 160 | 82.2 | 
6 | Cc1cc(Nc2cc(N3CCN(C)CC3)nc(Sc3ccc(NC(=O)C4CC4)cc3)n2)n[nH]1 [Tozasertib] + C[C@]1(O)C[C@@H](c2nc(-c3ccc4ccc(-c5ccccc5)nc4c3)c3c(N)nccn32)C1 [OSI906] (first compound 0.006 µM, partner dose 0.4 µM) | 51 | 408 | 69.3 | 576 | 81.3 | 101 | 93.6 | 95.8 | 156 | 65.4 | 97.2 | 153 | 65.8 | 106 | 90 | 138 | 29.3 | 107 | 192 | 
7 | COc1cc([C@@H]2c3cc4c(cc3[C@@H](O[C@@H]3O[C@@H]5CO[C@@H](C)O[C@H]5[C@H](O)[C@H]3O)[C@H]3COC(=O)[C@H]23)OCO4)cc(OC)c1O [etoposide] + C=CCn1c(=O)c2cnc(Nc3ccc(N4CCN(C)CC4)cc3)nc2n1-c1cccc(C(C)(C)O)n1 [MK1775] (first compound 0.02 µM, partner dose 0.02 µM) | 93.8 | 256 | 141 | 246 | 44.1 | 161 | 32.4 | 118 |  |  | 62.7 | 140 | 258 | 88.1 | 64.6 | 187 | 58.9 | 64.5 | 91.1 | 131
8 | N#CC[C@H](C1CCCC1)n1cc(-c2ncnc3[nH]ccc23)cn1 [ruxolitinib] + C[C@]1(O)C[C@@H](c2nc(-c3ccc4ccc(-c5ccccc5)nc4c3)c3c(N)nccn32)C1 [OSI906] (first compound 1 µM, partner dose 0.4 µM) | 59.9 | 157 | 118 | 408 | 82.6 | 139 | 97.8 | 115 | 126 | 30.9 | 101 | 64.4 | 27.8 | 52.1 | 45.3 | 41 | 51.9 | 112 | 115 | 
9 | O=C(/C=C/c1cccnc1)NCCCCC1CCN(C(=O)c2ccccc2)CC1 + OCc1c[nH]c2ccccc12 [Indole-3-carbinol] (first compound 0.01 µM, partner dose 0.8 µM) | 104 | 58.5 | 179 | 140 | 162 | 2060 | 97.5 | 392 | 364 | 953 | 129 | 142 | 92.6 | 1550 | 260 | 75 | 97.9 | 94.3 | 284 | 
10 | CC[C@]1(O)C[C@H]2CN(CCc3c([nH]c4ccccc34)[C@@](C(=O)OC)(c3cc4c(cc3OC)N(C=O)[C@H]3[C@@](O)(C(=O)OC)[C@H](OC(C)=O)[C@]5(CC)C=CCN6CC[C@]43[C@@H]65)C2)C1 [vincristine] + CNC(=O)c1cc(Oc2ccc(NC(=O)Nc3ccc(Cl)c(C(F)(F)F)c3)cc2)ccn1 [sorafenib] (first compound 0.0001 µM, partner dose 0.4 µM) | 119 | 73.6 | 1540 | 36.1 | 94.4 | 237 | 92.4 | 148 | 155 | 79.7 | 55.9 | 74 | 184 | 103 | 96.6 | 68.8 | 241 | 168 | 121 | 
11 | O=c1[nH]nc(Sc2ncc([N+](=O)[O-])s2)n1-c1ccc2c(c1)OCCO2 + CCCCCCCCc1ccc(CCC(N)(CO)CO)cc1 [fingolimod] (first compound 0.2 µM, partner dose 2 µM) | 168 | 87.8 | 72.3 | 100 | 146 | 65.4 | 87.2 | 143 | 124 | 83.8 | 66.9 | 79.3 | 128 | 107 | 87.9 | 66.3 | 50 | 38.5 | 27 | 
12 | CCCCCCCCCCCCCCCCCCOP(=O)([O-])OC1CC[N+](C)(C)CC1 [Perifosine] + Nc1cccc2c1CN(C1CCC(=O)NC1=O)C2=O [lenalidomide] (first compound 0.4 µM, partner dose 1 µM) | 87.8 | 379 | 49.3 | 529 | 82.5 | 83.1 | 204 | 81.7 | 88.3 | 30.8 | 95 | 81.2 | 69.7 | 111 | 186 | 174 | 109 | 105 | 75.9 | 
13 | O=C(Nc1cc(C(F)(F)F)cc(C(F)(F)F)c1)c1cc(Cl)ccc1O + Nc1cccc2c1CN(C1CCC(=O)NC1=O)C2=O [lenalidomide] (first compound 0.016 µM, partner dose 1 µM) | 79.5 | 75.5 | 62.7 | 64.4 | 64.3 | 71.8 | 103 | 113 | 82 | 96.1 | 80 | 71.1 | 87 | 62.1 | 132 | 64.2 | 119 | 77.6 | 54.6 | 
14 | COc1cc([C@@H]2c3cc4c(cc3[C@@H](O[C@@H]3O[C@@H]5CO[C@@H](C)O[C@H]5[C@H](O)[C@H]3O)[C@H]3COC(=O)[C@H]23)OCO4)cc(OC)c1O [etoposide] + OCc1c[nH]c2ccccc12 [Indole-3-carbinol] (first compound 0.02 µM, partner dose 0.8 µM) | 65.1 | 182 | 21.8 | 86.6 | 162 | 61.9 | 80.9 | 80.4 | 82.1 | 94.2 | 34.8 | 51.8 | 41.4 | 101 | 137 | 68.3 | 116 | 153 | 62.9 | 
15 | CCCCCCCCCCCCCCCCCCOP(=O)([O-])OC1CC[N+](C)(C)CC1 [Perifosine] + C[C@@H](Oc1cc(-c2cnn(C3CCNCC3)c2)cnc1N)c1c(Cl)ccc(F)c1Cl [Crizotinib] (first compound 0.4 µM, partner dose 0.2 µM) | 72.3 | 39.9 | 139 | 72 | 73 | 57.9 | 89.6 | 129 | 112 | 80.9 | 160 | 131 | 112 | 33.3 | 237 | 128 | 49.4 | 166 | 90 | 
16 | CC[C@]1(O)C[C@H]2CN(CCc3c([nH]c4ccccc34)[C@@](C(=O)OC)(c3cc4c(cc3OC)N(C=O)[C@H]3[C@@](O)(C(=O)OC)[C@H](OC(C)=O)[C@]5(CC)C=CCN6CC[C@]43[C@@H]65)C2)C1 [vincristine] + CC(C)C[C@H](NC(=O)[C@H](Cc1ccccc1)NC(=O)c1cnccn1)B(O)O [Bortezomib] (first compound 0.0001 µM, partner dose 0.001 µM) | 244 | 508 | 360 | 70.8 | 95.7 | 508 | 183 | 181 | 198 | 158 | 66.5 | 89.7 | 194 | 1230 | 78.9 | 142 | 415 | 63.4 | 208 | 

An excerpt of these results, as comma-separated lines:
Row,Compound,cleaved PARP positive nuclei fraction (501Mel) [%],cleaved PARP positive nuclei fraction (A101D) [%],cleaved PARP positive nuclei fraction (A2058) [%],cleaved PARP positive nuclei fraction (A375) [%],cleaved PARP positive nuclei fraction (C32) [%],cleaved PARP positive nuclei fraction (CBRC008) [%],cleaved PARP positive nuclei fraction (CBRC014) [%],cleaved PARP positive nuclei fraction (CBRC016) [%],cleaved PARP positive nuclei fraction (CBRC017) [%],cleaved PARP positive nuclei fraction (CBRC034) [%],cleaved PARP positive nuclei fraction (COLO792) [%],cleaved PARP positive nuclei fraction (COLO800) [%],cleaved PARP positive nuclei fraction (COLO829) [%],cleaved PARP positive nuclei fraction (G361) [%],cleaved PARP positive nuclei fraction (IPC-298) [%],cleaved PARP positive nuclei fraction (IST-MEL1) [%],cleaved PARP positive nuclei fraction (LB2518-MEL) [%],cleaved PARP positive nuclei fraction (LOXIMVI) [%],cleaved PARP positive nuclei fraction (MEL-HO) [%],cleaved PARP positive nuclei fraction (CBRC013) [%]
2,"Cc1cn(-c2cc(NC(=O)c3ccc(C)c(Nc4nccc(-c5cccnc5)n4)c3)cc(C(F)(F)F)c2)cn1 [nilotinib] + Nc1nc(F)nc2c1ncn2[C@@H]1O[C@H](CO)[C@@H](O)[C@@H]1O [fludarabine] (first compound 0.2 µM, partner dose 0.2 µM)",11400,98.9,130,5890,320,61.7,93.5,238,131,39.1,65.3,75,140,116,47.3,152,138,90,272,
3,"COc1cc([C@@H]2c3cc4c(cc3[C@@H](O[C@@H]3O[C@@H]5CO[C@@H](C)O[C@H]5[C@H](O)[C@H]3O)[C@H]3COC(=O)[C@H]23)OCO4)cc(OC)c1O [etoposide] + CC(C)C[C@H](NC(=O)[C@H](Cc1ccccc1)NC(=O)c1cnccn1)B(O)O [Bortezomib] (first compound 0.02 µM, partner dose 0.001 µM)",954,442,68,175,96,297,134,248,258,97.8,112,33.5,71.2,2270,161,127,685,74.8,122,
6,"Cc1cc(Nc2cc(N3CCN(C)CC3)nc(Sc3ccc(NC(=O)C4CC4)cc3)n2)n[nH]1 [Tozasertib] + C[C@]1(O)C[C@@H](c2nc(-c3ccc4ccc(-c5ccccc5)nc4c3)c3c(N)nccn32)C1 [OSI906] (first compound 0.006 µM, partner dose 0.4 µM)",51,408,69.3,576,81.3,101,93.6,95.8,156,65.4,97.2,153,65.8,106,90,138,29.3,107,192,
10,"CC[C@]1(O)C[C@H]2CN(CCc3c([nH]c4ccccc34)[C@@](C(=O)OC)(c3cc4c(cc3OC)N(C=O)[C@H]3[C@@](O)(C(=O)OC)[C@H](OC(C)=O)[C@]5(CC)C=CCN6CC[C@]43[C@@H]65)C2)C1 [vincristine] + CNC(=O)c1cc(Oc2ccc(NC(=O)Nc3ccc(Cl)c(C(F)(F)F)c3)cc2)ccn1 [sorafenib] (first compound 0.0001 µM, partner dose 0.4 µM)",119,73.6,1540,36.1,94.4,237,92.4,148,155,79.7,55.9,74,184,103,96.6,68.8,241,168,121,
